For 42 sequences, binding signal results are on record in PMC7819943, “Rice protein-binding microarrays: a tool to detect cis-acting elements near promoter regions in rice”.

Chains of the proteins cited; added tags and fusions are not shown.
UniProt Q0JBA9, entry or part of it: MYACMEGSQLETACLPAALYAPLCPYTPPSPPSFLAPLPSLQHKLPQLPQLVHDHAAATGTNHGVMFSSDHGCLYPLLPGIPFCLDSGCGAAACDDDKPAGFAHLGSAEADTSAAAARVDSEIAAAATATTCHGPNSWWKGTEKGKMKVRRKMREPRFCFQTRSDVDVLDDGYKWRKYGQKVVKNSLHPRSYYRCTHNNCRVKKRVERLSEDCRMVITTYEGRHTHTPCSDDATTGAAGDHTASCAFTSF

The list shows a part of the results.

The target of the experiment is OsWRKY34 (Oryza sativa, UniProt Q0JBA9 1-250). As to the kind of experiment: protein-binding microarray (RPBM); PBS, 2% BSA, 51.3 ng/ul salmon testes DNA, 50 uM zinc acetate, 200 nM TF, 25 C, 1 h; high values mean tight binding. The following applies: protein: recombinant; tags: N-terminal polyhistidine and DsRed monomer fusion (pET32a); label: CyDye5-dUTP incorporated in the synthesized complementary strand; 3' TTTTT single-stranded linker to array surface; dsDNA, one strand shown. Put shortly:
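Ni–NTA purification followed expression in E. coli BL21-CodonPlus of transcription factors fused N-terminally to a polyhistidine tag and DsRed. At 200 nM in PBS with 2% BSA, salmon testes DNA and 50 µM zinc acetate, the protein was incubated for 1 h at 25 °C with a custom Agilent array that had been primer-extended with Cy5-dUTP and blocked with 2% BSA. After washing, the array was read on an Axon 4000B scanner. The binding signal is per-feature fluorescence intensity in arbitrary units.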
Regarding “AATCCTATGTTTTTTCTATTCCTCCGTTTTTTTAACCCTGCGGAGTCACCTAGTGCAG”, the binding signal is 8710 fluorescence intensity (a.u.). As for “CGAGCCTAGCCCCACCACCTAGATGCTACTTTGATCAACCCGGAGTCACCTAGTGCAG”, the binding signal was 8110 fluorescence intensity (a.u.). “ACATGTTGTAGTCTATTTATATTTATCACTAATGTAGAAACGGAGTCACCTAGTGCAG”: the binding signal was 8550 fluorescence intensity (a.u.). As for “AATAATTTTCTTTTGTCACACTGTTTCTTCTCTAATCTATCGGAGTCACCTAGTGCAG”, the binding signal was 12200 fluorescence intensity (a.u.).

Take “TCTAGACATTACGGTCCCCATCGGTTGCCCACTTCTTATTCGGAGTCACCTAGTGCAG”: the binding signal is 9160 fluorescence intensity (a.u.). With “CTCGCCGGATCCCTCAAGTTCCATTGTTCCCTTTATAACCCGGAGTCACCTAGTGCAG” the figure was 8180 fluorescence intensity (a.u.); with “CTTCTTAATAATTAGATAGTATTCACCATCAAGCTTTGACCGGAGTCACCTAGTGCAG”, 8120 fluorescence intensity (a.u.). Turning to “CGGGAGGATGCGGCACAGGGGTTGTTGACCGTGCGTCGCTCGGAGTCACCTAGTGCAG”, the binding signal is 8280 fluorescence intensity (a.u.). The figure for “GCACCATTGACTTGTCGCATAACGTTTGACCATTTATCTTCGGAGTCACCTAGTGCAG” is 15600 fluorescence intensity (a.u.); for “GTCCCTGGCCCCATATACTGCACATGACCCTTGACAAACGCGGAGTCACCTAGTGCAG” it is 10200 fluorescence intensity (a.u.). As for “GATCCAGTGCGTCCTCTCCTAGATGTTGTTGCCAAAATTTCGGAGTCACCTAGTGCAG”, the binding signal was 8050 fluorescence intensity (a.u.).

For the sequence “CACTAAGTCCGTTCCCATGCCCATTTCTCCCTGCATATTACGGAGTCACCTAGTGCAG”, the binding signal was 9680 fluorescence intensity (a.u.). On to “CCACGACAACTCGCACCACACACCACCACCATCAAACTCCCGGAGTCACCTAGTGCAG”, for which the binding signal is 8600 fluorescence intensity (a.u.). With “GCTGGATAAATTCTTTTGGCTTGTCATGGCCGGCTCATTTCGGAGTCACCTAGTGCAG” the figure was 10600 fluorescence intensity (a.u.); with “CTAGGCTCCTAGCATACTTTCTGGTACTATTGGACACTCACGGAGTCACCTAGTGCAG”, 8440 fluorescence intensity (a.u.); with “TCAGGTCAACCGTAATCCTCATCACGGCATCAGTGCATCACGGAGTCACCTAGTGCAG”, 8970 fluorescence intensity (a.u.). Consider “TACTTGCTCTGGTTAACTGCCACATGTTTTGTTCTATAAACGGAGTCACCTAGTGCAG”, for which the binding signal is 12700 fluorescence intensity (a.u.).

Consider “CTAACTTTTCCATTATGTTAAAACTTTCTTACACACTAACCGGAGTCACCTAGTGCAG”, for which the binding signal was 8670 fluorescence intensity (a.u.). Consider “GCTCCTCCTCGCCGTCCTGCTCCTGACATTGCTCGCCGCGCGGAGTCACCTAGTGCAG”, for which the binding signal was 11300 fluorescence intensity (a.u.). Take “GGGGCTGTCAGAATCGTAAACCCTGGCTGTGGCAATGGCACGGAGTCACCTAGTGCAG”: the binding signal was 8860 fluorescence intensity (a.u.). Regarding “CGATCACGCTGCCTCCAGCCCTCTACTGGTACATCCACGCCGGAGTCACCTAGTGCAG”, the binding signal was 8770 fluorescence intensity (a.u.). As for “TGTGTGTGCGCCTCCGCGAGACCAGACACCAACCTCTCTCCGGAGTCACCTAGTGCAG”, the binding signal was 8100 fluorescence intensity (a.u.).

With “TTATCCGGTTAGTTCCGGCGTTCTCATCTCAATCCCATATCGGAGTCACCTAGTGCAG”, the binding signal was 9470 fluorescence intensity (a.u.). As for “ATGTGCTGTTGTGTGTACTTTATTGGTTAGTTCTATAATACGGAGTCACCTAGTGCAG”, the binding signal is 12500 fluorescence intensity (a.u.). Take “CGCGGCCATCGCAGTCGCCCAGTCATTGTCCCACCGCCTCCGGAGTCACCTAGTGCAG”: the binding signal is 9980 fluorescence intensity (a.u.). With “CTCTCGAGCCTCCACGTCACATCGCCGGCGCCGGCTCATGCGGAGTCACCTAGTGCAG” the figure was 9490 fluorescence intensity (a.u.); with “TCCAAACTATTTATCCAATTGTCATTCTAATTATATCGTTCGGAGTCACCTAGTGCAG”, 9470 fluorescence intensity (a.u.); with “GCAGTTCTTTCGATTCTACTTGGCGACGACATCCATGTGTCGGAGTCACCTAGTGCAG”, 10600 fluorescence intensity (a.u.). Regarding “ACCACTTGGGCCGCAGTGACGCTGCTCGTACATGTCCCGACGGAGTCACCTAGTGCAG”, the binding signal was 8080 fluorescence intensity (a.u.). For the sequence “TTGTGAGTGTGTATGTGTTTATGGTGTGTAATTTTTTTTACGGAGTCACCTAGTGCAG”, the binding signal is 9320 fluorescence intensity (a.u.). Regarding “GCAATTCTGTTTGTACGAGGTATAATGTCCCTTTTGCTTGCGGAGTCACCTAGTGCAG”, the binding signal was 10600 fluorescence intensity (a.u.). With “ATGCACTTCCTGTCACGGTCCGGCCCATCCTAGCTGCCGGCGGAGTCACCTAGTGCAG” the figure was 10000 fluorescence intensity (a.u.).

Take “TGATCTATTCTACTGATTTTTTTTTCATAGTAAATTTTTTCGGAGTCACCTAGTGCAG”: the binding signal was 8590 fluorescence intensity (a.u.). As to “GCGGCATCTCCAATCCCATCCATTCTAGTGGTCGATCTAGCGGAGTCACCTAGTGCAG”, the binding signal is 8780 fluorescence intensity (a.u.). For “GAATGTTTTTCTGGGATGCTGTGTACCGTGTTGTTCGCAACGGAGTCACCTAGTGCAG”, the binding signal was 9870 fluorescence intensity (a.u.). Consider “ACTACTATATGCTTTGAATAACGTGGGGATTGATCTGGTACGGAGTCACCTAGTGCAG”, for which the binding signal was 10400 fluorescence intensity (a.u.).

“GTAATTTGTTTTGTTATTAGTCTACGTTTAATATTTCAAACGGAGTCACCTAGTGCAG”: the binding signal was 8420 fluorescence intensity (a.u.). As for “TTCAATGTTTTCAGATGTGTGTTTTTTCTAGTTTTCTTTCCGGAGTCACCTAGTGCAG”, the binding signal was 8690 fluorescence intensity (a.u.).

Turning to “TTCGTATGTTTTCCTATTATTGTATTCTTCTCTATTTCCACGGAGTCACCTAGTGCAG”, the binding signal is 10800 fluorescence intensity (a.u.). With “GTGGGCCCCGCTTCGCCCGCCCGTGCCAGCCAGGATGGGACGGAGTCACCTAGTGCAG” the figure was 8680 fluorescence intensity (a.u.); with “TTTTCTCCTTGGCCTTTCGTGTGCCTGGCGCGCTCAGTTTCGGAGTCACCTAGTGCAG”, 8440 fluorescence intensity (a.u.); with “TTGGCCTCTGTTATATTTTCAGTCTCTTCAGAATATTTTTCGGAGTCACCTAGTGCAG”, 8900 fluorescence intensity (a.u.).
